Laboratory results from PubChem BioAssay AID248 (DTP/NCI, 2004).
The list does not hold the whole screen: it is rich in T/C values a quarter to a half above the control, in often repeated tests (any T/C) and in doses without a T/C. Further doses and runs are listed elsewhere. T/C is the treated group as % of the vehicle group. Some doses have a count of surviving animals in place of a T/C: the source holds a T/C of zero for them, seemingly a mark for toxic or unscored doses. Some doses without a T/C left all or most animals alive at the check, yet need not have been tolerated: the source hardly ever lists a survival T/C far under the control, and the zero likely stands for such cases as well. Counts of survivors are from the toxicity check (mostly the fifth day) where no day follows; animals may have died later. Schedules are NCI's codes, read here as Q, the interval in days (D) or hours (H), X, the number of doses. Some entries hold several experiments; the results are listed from low to high. Some schedule codes hold Z or #, which are not explained here. For survival time, this PubChem deposit counts one and a half times the control or more as active, and values a quarter to a half above the control carry no call in these data; other NCI protocols may use other cut-offs. Some T/C values carry the count of animals alive at the toxicity check (mostly the fifth day); without a count, all were alive then.

Test system: L1210 leukemia ip in BDF1 mice, survival T/C
Test: NCI In Vivo Anticancer Drug Screen. Data for tumor model L1210 Leukemia (intraperitoneal) in B6D2F1 (BDF1) mice
Details: T/C endpoint: mean survival time, higher T/C = longer survival
[1] = dose: 400.0 mg/kg/injection, schedule: Q04DX003 (ip), vehicle: saline
[2] = dose: 300.0 mg/kg/injection, schedule: Q01DX001 (ip), vehicle: saline
[3] = dose: 100.0 mg/kg/injection, schedule: Q01DX009 (ip), vehicle: saline
[4] = dose: 400.0 mg/kg/injection, schedule: Q01DX009 (ip), vehicle: saline
[5] = dose: 400.0 mg/kg/injection, schedule: Q01DX009 (ip), vehicle: Klucel (hydroxypropylcellulose) (HPC)
[6] = dose: 400.0 mg/kg/injection, schedule: Q04DX002 (ip), vehicle: Klucel (hydroxypropylcellulose) (HPC)
[7] = dose: 50.0 mg/kg/injection, schedule: Q01DX009 (ip), vehicle: saline

**Q.** How did the survivor count [1] turn out when `[Cl][Pt+2][Cl].[NH-]c1ccc([N+](=O)[O-])cc1.[NH-]c1ccc([N+](=O)[O-])cc1` was run?
**A.** Its survivor count is 1 of 3.

**Q.** `CN(C(=O)NCCCl)C1CCCCC1` was tested. Which survivor count (dose: 150.0 mg/kg/injection, schedule: Q01DX001 (ip), vehicle: carboxymethylcellulose (CMC)) did it give?
**A.** Its survivor count is 0 of 6.

**Q.** And the survivor count (dose: 300.0 mg/kg/injection, schedule: Q01DX001 (ip), vehicle: carboxymethylcellulose (CMC))?
**A.** The survivor count was 0 of 6.

**Q.** How did the survivor count (dose: 150.0 mg/kg/injection, schedule: Q01DX001 (ip), vehicle: saline) turn out when `CCN(CC)CCCC(C)Nc1cc(N)nc2nc(-c3ccccc3)cnc12` (stereo not drawn) (tested in a mixture with another compound) was run?
**A.** Its survivor count is 4 of 6.

**Q.** And the survivor count [2]?
**A.** Its survivor count is 0 of 6 and 1 of 6.

**Q.** Which survivor count (dose: 100.0 mg/kg/injection, schedule: Q04DX003 (ip), vehicle: saline) does the source give for `NC(N)=N/N=C(\C=C\C=C(c1ccc(Cl)cc1)c1ccc(Cl)cc1)c1ccc(Cl)cc1` here?
**A.** Its survivor count is 0 of 6.

**Q.** And the survivor count (dose: 200.0 mg/kg/injection, schedule: Q04DX003 (ip), vehicle: saline)?
**A.** Its survivor count is 0 of 6.

**Q.** What about the survivor count [1] of the same compound?
**A.** The survivor count was 0 of 6.

**Q.** Which results are given for `Cc1cccc(C)c1OCC1=NCCN1`?
**A.** survivor count [3]: 0 of 6; survivor count (dose: 200.0 mg/kg/injection, schedule: Q01DX009 (ip), vehicle: saline): 0 of 6; survivor count [4]: 0 of 6

**Q.** `CC(C)(C)c1ccc(OC(=O)Nc2ccc(O)c(C(=O)O)c2)cc1` was tested. Which survivor count (dose: 200.0 mg/kg/injection, schedule: Q01DX001 (ip), vehicle: Klucel (hydroxypropylcellulose) (HPC)) did it give?
**A.** The survivor count was 1 of 6.

**Q.** And the survivor count (dose: 200.0 mg/kg/injection, schedule: Q01DX009 (ip), vehicle: Klucel (hydroxypropylcellulose) (HPC))?
**A.** Its survivor count is 5 of 6.

**Q.** And the survivor count (dose: 400.0 mg/kg/injection, schedule: Q01DX001 (ip), vehicle: Klucel (hydroxypropylcellulose) (HPC))?
**A.** The survivor count was 0 of 6.

**Q.** And the survivor count [5]?
**A.** Its survivor count is 0 of 3 and 0 of 6.

**Q.** And the survivor count [6]?
**A.** Its survivor count is 0 of 3 and 2 of 6.

**Q.** And the survivor count (dose: 400.0 mg/kg/injection, schedule: Q04DX003 (ip), vehicle: Klucel (hydroxypropylcellulose) (HPC))?
**A.** The survivor count was 0 of 6.

**Q.** For `Cc1ncc2c[n+]([O-])ccn12`, which survivor count [1] is on record?
**A.** The survivor count was 0 of 6.

**Q.** `CCO/C(=C\[P+](c1ccccc1)(c1ccccc1)c1ccccc1)c1ccccc1` was tested. Which survivor count (dose: 80.0 mg/kg/injection, schedule: Q01DX001 (ip), vehicle: saline) did it give?
**A.** Its survivor count is 2 of 6.

**Q.** Which results are given for `Nc1ncnc2c1nnn2C1OC(CO)C(O)C1O` (stereo not drawn)?
**A.** T/C (dose: 15.0 mg/kg/injection, schedule: Q01DX015 (ip), vehicle: saline): 125 % of control; T/C (dose: 28.0 mg/kg/injection, schedule: Q01DX015 (ip), vehicle: saline): 142 % of control; T/C (dose: 42.0 mg/kg/injection, schedule: Q01DX015 (ip), vehicle: saline): 133 % of control; survivor count (dose: 120.0 mg/kg/injection, schedule: Q01DX015 (ip), vehicle: saline): 6 of 6; survivor count (dose: 200.0 mg/kg/injection, schedule: Q01DX015 (ip), vehicle: saline): 4 of 6; T/C (dose: 270.0 mg/kg/injection, schedule: Q01DX001 (ip), vehicle: saline): 125 % of control [4 of 6 alive]; T/C (dose: 400.0 mg/kg/injection, schedule: Q01DX001 (ip), vehicle: saline, evaluated on day 30): 131 % of control [4 of 6 alive]; T/C (dose: 400.0 mg/kg/injection, schedule: Q01DX001 (ip), vehicle: saline, run until all animals had died): 139 % of control [5 of 6 alive]; survivor count (dose: 600.0 mg/kg/injection, schedule: Q01DX001 (ip), vehicle: saline): 1 of 6; survivor count (dose: 800.0 mg/kg/injection, schedule: Q01DX001 (ip), vehicle: saline): 2 of 6

**Q.** How did the survivor count [3] turn out when `Cc1ccc2scc3c4ccccc4nc-3c2c1` was run?
**A.** The survivor count was 2 of 6.

**Q.** How did the survivor count (dose: 25.0 mg/kg/injection, schedule: Q01DX009 (ip), vehicle: saline with Tween-80) turn out when `CC1(C)C2CCC1(CS(=O)(=O)O)C(=O)C2Br.[Ag]` (stereo not drawn) was run?
**A.** The survivor count was 6 of 6.

**Q.** And the survivor count (dose: 50.0 mg/kg/injection, schedule: Q01DX009 (ip), vehicle: saline with Tween-80)?
**A.** Its survivor count is 2 of 6.

**Q.** `CC1CCCC[N-]1.CC1CCCC[N-]1.CC1CCCC[N-]1.CC1CCCC[N-]1.N#CS.[Zn+2]` (stereo not drawn) was tested. Which survivor count (dose: 400.0 mg/kg/injection, schedule: Q01DX001 (ip), vehicle: saline) did it give?
**A.** The survivor count was 0 of 4.

**Q.** With `CCOC(=O)C(C#N)c1cccc(C)c1` (stereo not drawn) as the compound, how does the survivor count (dose: 400.0 mg/kg/injection, schedule: Q04DX003 (ip), vehicle: saline with Tween-80) read?
**A.** The survivor count was 0 of 6.

**Q.** `Cc1ccc(C(=O)C[n+]2cccc3ccccc32)c(C)c1` was tested. Which survivor count (dose: 50.0 mg/kg/injection, schedule: Q04DX002 (ip), vehicle: saline with Tween-80) did it give?
**A.** Its survivor count is 1 of 3.

**Q.** And the survivor count (dose: 100.0 mg/kg/injection, schedule: Q04DX002 (ip), vehicle: saline with Tween-80)?
**A.** Its survivor count is 0 of 3.

**Q.** What about the survivor count (dose: 200.0 mg/kg/injection, schedule: Q04DX002 (ip), vehicle: saline with Tween-80) of the same compound?
**A.** Its survivor count is 0 of 3.

**Q.** And the survivor count (dose: 400.0 mg/kg/injection, schedule: Q04DX002 (ip), vehicle: saline with Tween-80)?
**A.** The survivor count was 0 of 3.

**Q.** What does the source list for `CCCCOC(CN)C(Cl)(Cl)Cl` (stereo not drawn)?
**A.** T/C (dose: 25.0 mg/kg/injection, schedule: Q01DX009 (ip), vehicle: saline): 94, 95, 103, 104 % of control; T/C (dose: 25.0 mg/kg/injection, schedule: Q04DX002 (ip), vehicle: saline): 91, 109, 112, 126 % of control; T/C [7]: 95, 97, 100 % of control [5 of 6 alive]; survivor count [7]: 3 of 3; T/C (dose: 50.0 mg/kg/injection, schedule: Q04DX002 (ip), vehicle: saline): 97, 100, 105, 109 % of control; T/C [3]: 98 [5 of 6 alive], 108, 114 % of control; survivor count [3]: 3 of 3; T/C (dose: 100.0 mg/kg/injection, schedule: Q04DX002 (ip), vehicle: saline): 89, 102, 104 [5 of 6 alive], 108 [2 of 3 alive], 111, 119 % of control; survivor count (dose: 200.0 mg/kg/injection, schedule: Q04DX002 (ip), vehicle: saline): 1 of 6; survivor count (dose: 400.0 mg/kg/injection, schedule: Q04DX002 (ip), vehicle: saline): 0 of 3 and 0 of 6

**Q.** How did the survivor count (dose: 100.0 mg/kg/injection, schedule: Q04DX002 (ip), vehicle: Klucel (hydroxypropylcellulose) (HPC)) turn out when `COc1cc2c(cc1OC)-c1cc3ccc(OC)c(OC)c3c[n+]1CC2` was run?
**A.** Its survivor count is 0 of 3.

**Q.** And the survivor count (dose: 200.0 mg/kg/injection, schedule: Q04DX002 (ip), vehicle: Klucel (hydroxypropylcellulose) (HPC))?
**A.** Its survivor count is 0 of 3.

**Q.** And the survivor count [6]?
**A.** Its survivor count is 0 of 3.

**Q.** With `CC1(C#N)CCc2c(ccc3ccccc23)C1=O` (stereo not drawn) as the compound, how does the survivor count [4] read?
**A.** The survivor count was 6 of 6.

**Q.** How did the survivor count (dose: 6.25 mg/kg/injection, schedule: Q04DX003 (ip), vehicle: other) turn out when `CN(CCO)N=Nc1ccccc1C#N` was run?
**A.** Its survivor count is 6 of 6.

**Q.** What about the survivor count (dose: 12.5 mg/kg/injection, schedule: Q04DX003 (ip), vehicle: other) of the same compound?
**A.** The survivor count was 6 of 6.

**Q.** And the survivor count (dose: 25.0 mg/kg/injection, schedule: Q04DX003 (ip), vehicle: other)?
**A.** The survivor count was 6 of 6.

**Q.** What about the survivor count (dose: 50.0 mg/kg/injection, schedule: Q01DX009 (ip), vehicle: other) of the same compound?
**A.** The survivor count was 1 of 6.

**Q.** What about the survivor count (dose: 50.0 mg/kg/injection, schedule: Q04DX003 (ip), vehicle: other) of the same compound?
**A.** Its survivor count is 6 of 6.

**Q.** What about the survivor count (dose: 100.0 mg/kg/injection, schedule: Q01DX009 (ip), vehicle: other) of the same compound?
**A.** Its survivor count is 1 of 6.

**Q.** What about the survivor count (dose: 100.0 mg/kg/injection, schedule: Q04DX003 (ip), vehicle: other) of the same compound?
**A.** Its survivor count is 6 of 6.

**Q.** And the survivor count (dose: 200.0 mg/kg/injection, schedule: Q01DX009 (ip), vehicle: other)?
**A.** The survivor count was 0 of 6.

**Q.** And the survivor count (dose: 200.0 mg/kg/injection, schedule: Q04DX003 (ip), vehicle: other)?
**A.** The survivor count was 5 of 6 and 6 of 6.

**Q.** What about the survivor count (dose: 400.0 mg/kg/injection, schedule: Q01DX009 (ip), vehicle: other) of the same compound?
**A.** The survivor count was 0 of 6.

**Q.** What about the survivor count (dose: 400.0 mg/kg/injection, schedule: Q04DX003 (ip), vehicle: other) of the same compound?
**A.** The survivor count was 5 of 6.

**Q.** With `CCNC(=O)N1CCN(c2ccc(Cl)cc2)CC1` as the compound, how does the survivor count [2] read?
**A.** Its survivor count is 2 of 6.

**Q.** For `O=S(=O)(Nc1cc2c(nc3ccccn32)c2ccccc12)c1ccccc1`, which survivor count (dose: 100.0 mg/kg/injection, schedule: Q01DX001 (ip), vehicle: saline) is on record?
**A.** Its survivor count is 0 of 6.

**Q.** And the survivor count (dose: 200.0 mg/kg/injection, schedule: Q01DX001 (ip), vehicle: saline)?
**A.** The survivor count was 0 of 6.

**Q.** `CC(=O)NC1CCC(CC(=O)O)CC1` (stereo not drawn) was tested. Which survivor count [5] did it give?
**A.** Its survivor count is 6 of 6.

**Q.** With `O=[As]1(c2cccc3ccccc23)c2ccccc2Cc2ccccc21` as the compound, how does the survivor count (dose: 55.0 mg/kg/injection, schedule: Q01DX Z (ip), vehicle: methylcellulose (MC)) read?
**A.** The survivor count was 6 of 6.
